PubChem BioAssay AID1508588, Peter MacCallum Cancer Centre – 2020

Aim: 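Which gene losses make BRAF-mutant melanoma cells more responsive to vemurafenib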 (primary screen)
Cells: human WM266.4 melanoma cells (BRAF V600 mutant)
Knock-down reagent: siRNA pool against human genes, 40 nM
Time to read-out: 96 h from transfection to read-out
Conditions: vemurafenib 300 nM (about IC25), added 48 h after transfection, for 48 h; comparison arm got DMSO vehicle only
Detection: 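Ratios to non-targeting siRNA for cell gain, counted as DAPI nuclei after minus before drug and averaged over two replicates, and for absorbance-read medium lactate per cell; both binned into fold-change classes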
Direction: cell gain with vemurafenib: higher = more cell gain than with non-targeting siRNA; lactate per cell with vemurafenib: higher = more lactate made per cell
Call rule: 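Enhancement is called by pairing each knock-down's vehicle-arm and drug-arm fold-change classes for viability or glycolysis; which class combinations qualify is not given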
Calls: active = enhances vemurafenib effect; inactive = no enhancement seen
The deposit covers about 18,000 reagents; shown is a random part of them. In the full data, 790 (4.4%) were called active. 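Calls rest on a combination of fold-change classes in drug and vehicle arms, not all shown here.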 Reagents against one gene are numbered here.

APOBEC4 showed cell gain with vemurafenib 0.21; lactate per cell with vemurafenib 0.94; inactive.
Silencing of LINGO1 (leucine rich repeat and Ig domain containing 1) gave: cell gain with vemurafenib 0.72; lactate per cell with vemurafenib 0.98; inactive.
OR8G1 (olfactory receptor family 8 subfamily G member 1) scored cell gain with vemurafenib 0.04; lactate per cell with vemurafenib 1.42; inactive.
For ADRA1B (adrenoceptor alpha 1B), the entry reads cell gain with vemurafenib 0.93; lactate per cell with vemurafenib 0.66; inactive.
TCP10L (t-complex 10 like) scored cell gain with vemurafenib 0.79; lactate per cell with vemurafenib 0.34; inactive.
With knock-down of BBS12 (Bardet-Biedl syndrome 12), the record shows cell gain with vemurafenib 0.5; lactate per cell with vemurafenib 0.63; inactive.
SLC33A1 gave cell gain with vemurafenib 0.75; lactate per cell with vemurafenib 0.74; inactive.
For HLTF (helicase like transcription factor) the deposit lists cell gain with vemurafenib 0.37; lactate per cell with vemurafenib 1.36; inactive.
BCL11A (BCL11 transcription factor A) gave cell gain with vemurafenib 0.47; lactate per cell with vemurafenib 1.6; inactive.
Against C1GALT1C1 (C1GALT1 specific chaperone 1) the deposit lists cell gain with vemurafenib 0.75; lactate per cell with vemurafenib 1.09; inactive.
Depletion of CD300A (CD300a molecule) came out at: cell gain with vemurafenib 0.73; lactate per cell with vemurafenib 0.72; inactive.
CNOT4 (CCR4-NOT transcription complex subunit 4) gave cell gain with vemurafenib 0.51; lactate per cell with vemurafenib 0.95; inactive.
Depletion of PCSK5 (proprotein convertase subtilisin/kexin type 5) resulted in: cell gain with vemurafenib 0.43; lactate per cell with vemurafenib 1.42; inactive.
PANK2 (pantothenate kinase 2) scored cell gain with vemurafenib 0.75; lactate per cell with vemurafenib 0.85; inactive.
With knock-down of BMP4 (bone morphogenetic protein 4), the screen gave cell gain with vemurafenib 0.59; lactate per cell with vemurafenib 1.49; inactive.
Silencing of AKAP10 (A-kinase anchoring protein 10) resulted in: cell gain with vemurafenib 0.34; lactate per cell with vemurafenib 1.52; inactive.
NDUFV1-DT (NDUFV1 divergent transcript) scored cell gain with vemurafenib 0.67; lactate per cell with vemurafenib 1.68; inactive.
Depletion of ATF6 (activating transcription factor 6) gave: cell gain with vemurafenib 0.68; lactate per cell with vemurafenib 0.15; active.

Records above whose gene name begins with B or b (3):
BBS12 (Bardet-Biedl syndrome 12) → cell gain with vemurafenib: 0.5; lactate per cell with vemurafenib: 0.63; Outcome: inactive
BCL11A (BCL11 transcription factor A) → cell gain with vemurafenib: 0.47; lactate per cell with vemurafenib: 1.6; Outcome: inactive
BMP4 (bone morphogenetic protein 4) → cell gain with vemurafenib: 0.59; lactate per cell with vemurafenib: 1.49; Outcome: inactive

The list goes on.
With knock-down of OR8B12 (olfactory receptor family 8 subfamily B member 12) the results were cell gain with vemurafenib 0.7; lactate per cell with vemurafenib 0.51; inactive.
After knock-down of KANSL3 (KAT8 regulatory NSL complex subunit 3), the record shows cell gain with vemurafenib 0.63; lactate per cell with vemurafenib 0.94; inactive.
Silencing of CSAG2 (CSAG family member 2) #1 resulted in: cell gain with vemurafenib 0.41; lactate per cell with vemurafenib 1.4; inactive.
CSAG2 (CSAG family member 2) #2 showed cell gain with vemurafenib 0.25; lactate per cell with vemurafenib 0.52; inactive.
With knock-down of PON3 (paraoxonase 3) the results were cell gain with vemurafenib 0.46; lactate per cell with vemurafenib 1.54; inactive.
Silencing of EZR (ezrin) resulted in: cell gain with vemurafenib 0.47; lactate per cell with vemurafenib 0.7; inactive.
Silencing of SOX4 (SRY-box transcription factor 4) gave: cell gain with vemurafenib 0.75; lactate per cell with vemurafenib 0.7; inactive.
With knock-down of APOF (apolipoprotein F) the results were cell gain with vemurafenib 0.49; lactate per cell with vemurafenib 0.21; inactive.
For UAP1 (UDP-N-acetylglucosamine pyrophosphorylase 1), the values are cell gain with vemurafenib 0.55; lactate per cell with vemurafenib 0.38; inactive.
CLUL1 (clusterin like 1) scored cell gain with vemurafenib 1.14; lactate per cell with vemurafenib 0.86; inactive.
With knock-down of ERVFRD-1 (endogenous retrovirus group FRD member 1, envelope) the results were cell gain with vemurafenib 0.78; lactate per cell with vemurafenib 0.26; inactive.
Silencing of WBP1 (WW domain binding protein 1) gave: cell gain with vemurafenib 0.5; lactate per cell with vemurafenib 1.5; inactive.
GIPC2 (GIPC PDZ domain containing family member 2) showed cell gain with vemurafenib 0.68; lactate per cell with vemurafenib 0.6; inactive.
For AKNA (AT-hook transcription factor), the values are cell gain with vemurafenib 0.6; lactate per cell with vemurafenib 1.6; inactive.
Depletion of NOX4 (NADPH oxidase 4) came out at: cell gain with vemurafenib 0.55; lactate per cell with vemurafenib 0.48; active.
Knock-down of LCN8 (lipocalin 8) resulted in: cell gain with vemurafenib 0.32; lactate per cell with vemurafenib 1.07; inactive.
TEDC1 (tubulin epsilon and delta complex 1) showed cell gain with vemurafenib 0.21; lactate per cell with vemurafenib 0.84; inactive.
With knock-down of NDRG4 (NDRG family member 4), the screen gave cell gain with vemurafenib 0.17; lactate per cell with vemurafenib 2.67; inactive.
With knock-down of SPTSSB (serine palmitoyltransferase small subunit B) the results were cell gain with vemurafenib 0.63; lactate per cell with vemurafenib 1.29; inactive.
MMRN2 (multimerin 2) showed cell gain with vemurafenib 0.71; lactate per cell with vemurafenib 0.72; inactive.
Against TEP1 (telomerase associated protein 1) the deposit lists cell gain with vemurafenib 0.71; lactate per cell with vemurafenib 0.98; inactive.
Knock-down of SYT6 (synaptotagmin 6) gave: cell gain with vemurafenib 1.07; lactate per cell with vemurafenib 0.51; inactive.
After knock-down of KRT18P55 (keratin 18 pseudogene 55), the screen gave cell gain with vemurafenib 0.26; lactate per cell with vemurafenib 1.19; inactive.
With knock-down of GTF2H3 (general transcription factor IIH subunit 3) the results were cell gain with vemurafenib 0.62; lactate per cell with vemurafenib 1.04; inactive.
MYO1C (myosin IC) scored cell gain with vemurafenib 0.82; lactate per cell with vemurafenib 0.61; inactive.
Knock-down of DEFB108B (defensin beta 108B) came out at: cell gain with vemurafenib 1.28; lactate per cell with vemurafenib 0.49; inactive.
Against RBM43 (RNA binding motif protein 43), the values are cell gain with vemurafenib 0.24; lactate per cell with vemurafenib 1.43; inactive.
Against TSN (translin), the entry reads cell gain with vemurafenib 0.87; lactate per cell with vemurafenib 0.4; inactive.
Depletion of SOX12 (SRY-box transcription factor 12) resulted in: cell gain with vemurafenib 0.73; lactate per cell with vemurafenib 0.8; inactive.
BRPF3 (bromodomain and PHD finger containing 3) showed cell gain with vemurafenib 0.9; lactate per cell with vemurafenib 1.01; inactive.
With knock-down of ZBTB32 (zinc finger and BTB domain containing 32), the screen gave cell gain with vemurafenib 0.74; lactate per cell with vemurafenib 1.12; inactive.
For POC1A (POC1 centriolar protein A) the deposit lists cell gain with vemurafenib 0.57; lactate per cell with vemurafenib 0.73; inactive.
Against RPP40 (ribonuclease P/MRP subunit p40), the values are cell gain with vemurafenib 0.55; lactate per cell with vemurafenib 0.7; active.
OR10Q1 (olfactory receptor family 10 subfamily Q member 1) gave cell gain with vemurafenib 0.3; lactate per cell with vemurafenib 1.26; inactive.
